From article PMC11880246
Results are given in words; binding and its absence hold for the method and conditions named. Some binding calls cover weakened binding; strength is not graded here.

Molecular target: T1, purified recombinant TMEM41B (not stated (human or mouse cDNA cloned)), Q5BJD5
T1 chain: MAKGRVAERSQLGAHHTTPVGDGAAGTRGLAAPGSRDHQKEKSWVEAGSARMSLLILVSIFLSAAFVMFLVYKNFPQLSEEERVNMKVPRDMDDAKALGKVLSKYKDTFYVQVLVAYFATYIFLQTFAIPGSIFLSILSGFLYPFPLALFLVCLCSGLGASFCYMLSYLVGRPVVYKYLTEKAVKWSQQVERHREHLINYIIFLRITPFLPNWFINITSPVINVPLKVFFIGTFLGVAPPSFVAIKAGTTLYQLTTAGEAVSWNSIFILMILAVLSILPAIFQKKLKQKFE
Assay: native gel or EMSA; purified recombinant TMEM41B on native gels, compared with 25 kDa on denatured gels; both purified
Conditions: remark: other sources report otherwise

binding: binds
B1: purified recombinant TMEM41B, Q5BJD5 1-291 (protein)
chain: MAKGRVAERSQLGAHHTTPVGDGAAGTRGLAAPGSRDHQKEKSWVEAGSARMSLLILVSIFLSAAFVMFLVYKNFPQLSEEERVNMKVPRDMDDAKALGKVLSKYKDTFYVQVLVAYFATYIFLQTFAIPGSIFLSILSGFLYPFPLALFLVCLCSGLGASFCYMLSYLVGRPVVYKYLTEKAVKWSQQVERHREHLINYIIFLRITPFLPNWFINITSPVINVPLKVFFIGTFLGVAPPSFVAIKAGTTLYQLTTAGEAVSWNSIFILMILAVLSILPAIFQKKLKQKFE
